The list shows a part of the results. Residues, ends and D or L forms follow the SMILES beside them. *: point of attachment. Cbz = O=C(OCc1ccccc1)*
Legend:
Test in all cases: log2 fold change, soluble protein after heating vs DMSO (PISA); higher = thermal stabilisation; K562 cells, 10 uM, 30 min; active = over 0.2 and 3.5 SD of the protein, either way, in both replicates (recomputed)
[1] = compound: C1COCCN1CCN2C3=CC=CC=C3N=C2NC(=O)C4=CC(=CC=C4)[N+](=O)[O-] [IRAK-1-4 Inhibitor I]
Summary of the method: (§1)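 Soluble protein was quantified by TMTpro 16plex LC-MS/MS after channel sums were equalised. It was obtained as the supernatant after 21,000xg for 90 min from pooled aliquots of K562 cells (2×10^6 cells/mL, 10 μM compound, 30 min) heated for 3 min across 48°C-58°C and extracted in PBS with 0.5% NP-40 at 4°C. Thermal stability values are relative to control samples and come from duplicates. They are given as log2 fold changes.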

Chains of the proteins cited; added tags and fusions are not shown. Lines headed by an entry give the natural chain unless they say otherwise; changes in a name come on top.
UniProt Q92797: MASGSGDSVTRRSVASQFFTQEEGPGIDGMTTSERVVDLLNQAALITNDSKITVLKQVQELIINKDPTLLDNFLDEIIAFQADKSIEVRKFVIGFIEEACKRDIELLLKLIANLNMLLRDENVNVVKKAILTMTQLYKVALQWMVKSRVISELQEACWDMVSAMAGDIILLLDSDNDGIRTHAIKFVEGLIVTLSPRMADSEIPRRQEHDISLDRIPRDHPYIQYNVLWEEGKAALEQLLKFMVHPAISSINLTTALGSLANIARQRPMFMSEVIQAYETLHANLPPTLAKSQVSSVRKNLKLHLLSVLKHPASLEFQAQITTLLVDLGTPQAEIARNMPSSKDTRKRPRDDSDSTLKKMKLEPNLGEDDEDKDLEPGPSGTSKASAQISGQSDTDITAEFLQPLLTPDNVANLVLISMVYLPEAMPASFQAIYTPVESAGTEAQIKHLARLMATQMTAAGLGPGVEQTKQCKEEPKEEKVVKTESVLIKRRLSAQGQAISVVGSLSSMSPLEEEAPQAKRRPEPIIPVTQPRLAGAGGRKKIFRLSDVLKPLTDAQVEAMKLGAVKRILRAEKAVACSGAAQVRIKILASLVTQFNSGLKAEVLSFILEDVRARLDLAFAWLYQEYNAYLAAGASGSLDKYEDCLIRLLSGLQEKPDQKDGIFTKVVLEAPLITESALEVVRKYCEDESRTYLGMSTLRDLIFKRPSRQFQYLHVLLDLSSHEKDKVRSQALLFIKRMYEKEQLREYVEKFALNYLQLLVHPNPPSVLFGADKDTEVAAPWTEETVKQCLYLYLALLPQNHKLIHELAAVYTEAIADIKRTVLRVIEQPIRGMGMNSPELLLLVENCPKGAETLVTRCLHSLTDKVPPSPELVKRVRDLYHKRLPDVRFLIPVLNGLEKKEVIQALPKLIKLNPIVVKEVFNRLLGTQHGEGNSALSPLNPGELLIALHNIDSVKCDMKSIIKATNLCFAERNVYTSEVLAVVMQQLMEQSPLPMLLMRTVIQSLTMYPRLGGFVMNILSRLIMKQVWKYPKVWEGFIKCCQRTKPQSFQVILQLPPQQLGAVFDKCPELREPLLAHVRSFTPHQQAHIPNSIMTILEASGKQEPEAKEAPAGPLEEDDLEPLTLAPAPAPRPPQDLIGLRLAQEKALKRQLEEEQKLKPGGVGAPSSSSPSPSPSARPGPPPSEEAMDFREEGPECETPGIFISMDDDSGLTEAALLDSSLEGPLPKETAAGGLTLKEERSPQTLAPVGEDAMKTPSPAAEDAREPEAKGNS
UniProt Q1ZZU3: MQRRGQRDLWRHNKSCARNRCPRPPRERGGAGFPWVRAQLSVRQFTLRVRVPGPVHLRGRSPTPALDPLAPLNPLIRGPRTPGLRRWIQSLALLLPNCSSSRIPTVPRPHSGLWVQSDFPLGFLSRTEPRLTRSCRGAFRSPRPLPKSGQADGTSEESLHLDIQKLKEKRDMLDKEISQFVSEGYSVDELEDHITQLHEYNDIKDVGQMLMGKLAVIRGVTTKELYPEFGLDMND
UniProt Q6UWL2: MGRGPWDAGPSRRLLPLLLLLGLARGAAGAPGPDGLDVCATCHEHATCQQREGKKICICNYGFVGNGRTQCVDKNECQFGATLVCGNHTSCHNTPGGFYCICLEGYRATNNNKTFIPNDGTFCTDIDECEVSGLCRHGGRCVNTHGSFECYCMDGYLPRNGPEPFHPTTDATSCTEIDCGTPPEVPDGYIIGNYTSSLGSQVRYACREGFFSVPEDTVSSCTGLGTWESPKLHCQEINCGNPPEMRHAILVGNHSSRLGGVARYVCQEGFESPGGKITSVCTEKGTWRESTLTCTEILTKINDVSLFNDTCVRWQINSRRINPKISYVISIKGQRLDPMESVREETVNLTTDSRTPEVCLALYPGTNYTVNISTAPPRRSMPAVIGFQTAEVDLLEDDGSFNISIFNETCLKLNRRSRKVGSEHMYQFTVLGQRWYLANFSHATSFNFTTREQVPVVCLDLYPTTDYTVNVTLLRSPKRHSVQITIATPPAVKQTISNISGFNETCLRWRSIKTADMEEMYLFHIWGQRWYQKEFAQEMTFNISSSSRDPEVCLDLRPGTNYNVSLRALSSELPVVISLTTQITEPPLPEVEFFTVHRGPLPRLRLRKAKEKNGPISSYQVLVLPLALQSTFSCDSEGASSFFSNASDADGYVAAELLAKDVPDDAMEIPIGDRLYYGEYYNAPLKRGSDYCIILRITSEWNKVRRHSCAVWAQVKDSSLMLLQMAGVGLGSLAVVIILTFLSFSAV
UniProt O94864: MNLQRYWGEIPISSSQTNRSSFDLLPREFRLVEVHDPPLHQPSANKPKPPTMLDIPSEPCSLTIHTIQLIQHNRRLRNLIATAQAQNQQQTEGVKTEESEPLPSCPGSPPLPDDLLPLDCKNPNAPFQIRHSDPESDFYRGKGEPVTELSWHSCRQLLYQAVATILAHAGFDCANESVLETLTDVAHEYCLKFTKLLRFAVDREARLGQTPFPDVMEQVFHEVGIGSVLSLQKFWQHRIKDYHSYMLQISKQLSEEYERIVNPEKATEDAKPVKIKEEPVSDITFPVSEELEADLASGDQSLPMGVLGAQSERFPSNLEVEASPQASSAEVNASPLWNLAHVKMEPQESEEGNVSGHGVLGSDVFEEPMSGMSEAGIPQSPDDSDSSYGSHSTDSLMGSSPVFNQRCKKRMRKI
UniProt Q9Y2H1: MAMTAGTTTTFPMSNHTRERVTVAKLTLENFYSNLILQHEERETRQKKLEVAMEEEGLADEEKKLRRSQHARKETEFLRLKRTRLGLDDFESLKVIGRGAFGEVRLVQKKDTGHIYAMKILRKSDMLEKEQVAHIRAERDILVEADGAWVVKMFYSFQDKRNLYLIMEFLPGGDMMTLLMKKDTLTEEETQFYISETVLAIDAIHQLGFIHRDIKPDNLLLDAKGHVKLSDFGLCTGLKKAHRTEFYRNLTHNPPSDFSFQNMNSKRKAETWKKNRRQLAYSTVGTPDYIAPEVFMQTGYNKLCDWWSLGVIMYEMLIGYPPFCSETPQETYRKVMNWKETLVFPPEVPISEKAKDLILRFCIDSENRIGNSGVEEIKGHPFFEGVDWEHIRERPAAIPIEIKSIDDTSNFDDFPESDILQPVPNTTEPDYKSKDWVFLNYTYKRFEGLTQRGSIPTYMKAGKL

[2] = compound: C=CC(=O)N1CCC[C@@H](n2nc(-c3ccc(Oc4ccccc4)cc3)c3c(N)ncnc32)C1 [ibrutinib]
Summary of the method: as §1

[3] = compound: CC(=O)c1cnc2ccc(-c3cc(Cl)c(O)c(Cl)c3)nc2c1N[C@H]1CC[C@H](CN(C)C)CC1
Summary of the method: as §1

[4] = compound: CC(C)(C)Cn1c(N)nc2ccc(-c3[nH]c(C(C)(C)C)nc3-c3ccc(F)cc3)nc21 [ralimetinib]
Summary of the method: as §1

[5] = compound: CC(C)(O)CC(=O)NCCn1ccc2ncnc(Nc3ccc(Oc4cccc(C(F)(F)F)c4)c(Cl)c3)c21
Summary of the method: as §1

[6] = compound: CC(C)C1=C2N=C(C=C(N2N=C1)NCC3=CC=CC=C3)NCCCCCCN
Summary of the method: as §1

[7] = compound: CC(C)C[C@@H](C=O)NC(=O)[C@H](CC(C)C)NC(=O)[C@H](CC(C)C)NC(=O)OCc1ccccc1
Summary of the method: as §1

[8] = compound: CC(C)N(C[C@H]1O[C@@H](n2cnc3c(N)ncnc32)[C@H](O)[C@@H]1O)[C@H]1C[C@@H](CCc2nc3cc(C(C)(C)C)ccc3[nH]2)C1 [pinometostat]
Summary of the method: as §1

[9] = compound: CC1=C(C2=C(C=C1)C(=O)C3=CC=CC=C3N2CCCN)C
Summary of the method: as §1

[10] = compound: CC1=C(C=C(C=C1)NC(=O)C2=CC(=CC=C2)C(C)(C)C#N)NC3=CC4=C(C=C3)N=CN(C4=O)C
Summary of the method: as §1

[11] = compound: CC1=C(C=C(C=C1)NC(=O)C2=CC(=CC=C2)N(C)C)NC(=O)C3=CC=C(C=C3)O
Summary of the method: as §1

[12] = compound: CC1=CC=C(C=C1)SC2=C3C=C(SC3=CN=C2)C(=O)N
Summary of the method: as §1

[13] = compound: CC1=NC(=CC=C1)C2=C(N=C(N2)C(C)(C)C)C3=CC4=NC=CN=C4C=C3
Summary of the method: as §1

[14] = compound: CCCCN(Cc1ccc(C(=O)NO)cc1)C(=O)Nc1ccccc1 [Nexturastat A]
Summary of the method: as §1

[15] = compound: CCCS(=O)(=O)Nc1ccc(F)c(C(=O)c2c[nH]c3ncc(-c4ccc(Cl)cc4)cc23)c1F [vemurafenib]
Summary of the method: as §1

[16] = compound: CCCS(=O)(=O)Nc1ccc(F)c(C(=O)c2c[nH]c3ncc(Cl)cc23)c1F
Summary of the method: as §1

[17] = compound: CCCc1cc(C)[nH]c(=O)c1CNC(=O)c1cc(-c2ccnc(N3CCN(C)CC3)c2)cc2c1cnn2C(C)C
Summary of the method: as §1

[18] = compound: CCN(CC)Cc1ccc2cc(COC(=O)Nc3ccc(C(=O)NO)cc3)ccc2c1 [givinostat]
Summary of the method: as §1

[19] = compound: CCN(CCCOc1ccc2c(Nc3cc(CC(=O)Nc4cccc(F)c4)[nH]n3)ncnc2c1)CCOP(=O)(O)O [barasertib]
Summary of the method: as §1

[20] = compound: CC1=C(C(CC(=O)N1)C2=CC=C(C=C2)C(F)(F)F)C(=O)NC3=C(C=C4C(=C3)C=NN4)F
Summary of the method: as §1

Measured: log2 fold change

SYMPK (UniProt Q92797)
inactive: [1] -0.029 | [2] -0.087 | [3] -0.057 | [4] 0.099 | [5] -0.296 | [6] -0.026 | [7] -0.061 | [8] -0.115 | [9] -0.033 | [10] 0.042 | [11] -0.004 | [12] 0.05 | [13] 0.005 | [14] -0.103 | [15] 0.119 | [16] 0.212 | [17] 0.051 | [18] 0.145 | [19] 0.042

SWI5 (UniProt Q1ZZU3)
inactive: [1] 0.053 | [2] 0.213 | [3] 0.134 | [5] -0.049 | [6] -0.029 | [8] -0.097 | [20] 0.022 | [10] -0.118 | [12] 0.055 | [13] -0.128 | [14] -0.015 | [15] 0.042 | [16] 0.02 | [18] 0.005 | [19] -0.016

SUSD1 isoform 2 (UniProt Q6UWL2)
inactive: [1] -0.066 | [2] -0.007 | [3] -0.084 | [6] 0.085 | [8] -0.002 | [20] -0.012 | [12] 0.105 | [13] -0.097 | [15] -0.004 | [16] -0.102 | [18] 0.033 | [19] 0.023

SUPT7L (UniProt O94864)
inactive: [1] -0.052 | [2] -0.093 | [4] 0.105 | [6] -0.207 | [7] -0.048 | [8] 0.059 | [20] -0.004 | [11] -0.101 | [13] 0.055 | [17] 0.092 | [18] -0.142 | [19] 0.232

STK38L (UniProt Q9Y2H1)
inactive: [1] -0.084 | [2] -0.048 | [3] -0.181 | [4] -0.577 | [5] -0.035 | [6] -0.148 | [7] 0.385 | [8] 0.051 | [9] -0.023 | [10] -0.044 | [11] 0.165 | [13] 0.056 | [14] -0.074 | [15] -0.038 | [17] 0.079 | [18] -0.016 | [19] 0.064

— the supplement of paper PMC10849652
